Results published in the supplement of paper PMC10060354, “Discovery of a small molecule ligand of FRS2 that inhibits invasion and tumor growth” (Cellular Oncology, 2022).
Repeats are few or missing, and single values can be far off.

Sequences of proteins named here, by UniProt entry; tags and fusion partners are left off. A change or cut given only in a name is not applied to a line headed by its entry.
UniProt Q13950, whole entry: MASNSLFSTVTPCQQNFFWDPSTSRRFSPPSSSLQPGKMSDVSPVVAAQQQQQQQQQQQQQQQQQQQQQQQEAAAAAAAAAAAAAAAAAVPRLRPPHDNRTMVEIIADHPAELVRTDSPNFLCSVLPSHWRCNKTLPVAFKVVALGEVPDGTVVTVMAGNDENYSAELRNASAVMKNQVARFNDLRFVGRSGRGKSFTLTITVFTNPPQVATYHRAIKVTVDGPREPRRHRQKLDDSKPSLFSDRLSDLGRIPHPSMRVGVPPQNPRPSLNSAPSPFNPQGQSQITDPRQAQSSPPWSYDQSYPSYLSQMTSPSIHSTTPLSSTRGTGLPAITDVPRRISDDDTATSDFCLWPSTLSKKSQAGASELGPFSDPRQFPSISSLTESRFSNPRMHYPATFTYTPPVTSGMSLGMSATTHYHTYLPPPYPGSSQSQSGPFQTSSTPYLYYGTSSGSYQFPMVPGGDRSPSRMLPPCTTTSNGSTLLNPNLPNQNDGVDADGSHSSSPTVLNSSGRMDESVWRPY
UniProt P59780: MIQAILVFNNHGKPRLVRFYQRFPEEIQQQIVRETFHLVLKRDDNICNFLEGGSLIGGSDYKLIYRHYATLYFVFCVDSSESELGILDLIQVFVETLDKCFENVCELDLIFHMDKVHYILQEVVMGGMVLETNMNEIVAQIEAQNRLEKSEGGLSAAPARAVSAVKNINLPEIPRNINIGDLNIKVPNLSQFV
UniProt P13674: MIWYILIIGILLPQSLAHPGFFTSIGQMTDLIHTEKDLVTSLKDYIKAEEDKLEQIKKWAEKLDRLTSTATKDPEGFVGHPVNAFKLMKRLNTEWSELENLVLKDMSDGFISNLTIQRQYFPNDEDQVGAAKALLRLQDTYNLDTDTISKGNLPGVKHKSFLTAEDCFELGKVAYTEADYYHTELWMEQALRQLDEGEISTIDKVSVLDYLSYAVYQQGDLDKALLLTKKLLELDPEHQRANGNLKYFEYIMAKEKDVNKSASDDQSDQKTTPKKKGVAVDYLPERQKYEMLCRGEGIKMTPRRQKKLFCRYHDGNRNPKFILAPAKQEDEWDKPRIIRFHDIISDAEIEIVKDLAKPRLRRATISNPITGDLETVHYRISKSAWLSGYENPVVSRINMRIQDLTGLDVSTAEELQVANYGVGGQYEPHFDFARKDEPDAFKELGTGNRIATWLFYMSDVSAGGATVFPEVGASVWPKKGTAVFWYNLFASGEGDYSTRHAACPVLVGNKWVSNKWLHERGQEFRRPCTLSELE
UniProt Q49A26: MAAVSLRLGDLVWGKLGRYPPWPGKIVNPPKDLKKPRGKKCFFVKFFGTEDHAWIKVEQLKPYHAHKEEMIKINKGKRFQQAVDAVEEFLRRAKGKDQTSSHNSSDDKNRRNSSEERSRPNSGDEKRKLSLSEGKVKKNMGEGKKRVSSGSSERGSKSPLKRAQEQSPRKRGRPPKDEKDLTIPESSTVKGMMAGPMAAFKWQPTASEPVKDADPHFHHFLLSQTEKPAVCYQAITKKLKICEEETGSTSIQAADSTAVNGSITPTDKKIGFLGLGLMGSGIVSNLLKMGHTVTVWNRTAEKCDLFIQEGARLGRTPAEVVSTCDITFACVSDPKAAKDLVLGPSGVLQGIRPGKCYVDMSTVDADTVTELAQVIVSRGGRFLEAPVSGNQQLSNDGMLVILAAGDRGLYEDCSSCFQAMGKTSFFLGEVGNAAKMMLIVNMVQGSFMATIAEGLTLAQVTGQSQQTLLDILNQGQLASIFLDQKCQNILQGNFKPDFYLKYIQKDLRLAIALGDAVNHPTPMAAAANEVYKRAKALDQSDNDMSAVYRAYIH
UniProt Q9BXN6: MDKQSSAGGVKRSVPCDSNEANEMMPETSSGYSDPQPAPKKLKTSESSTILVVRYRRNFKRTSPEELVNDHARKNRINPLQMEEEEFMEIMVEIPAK
UniProt P61081: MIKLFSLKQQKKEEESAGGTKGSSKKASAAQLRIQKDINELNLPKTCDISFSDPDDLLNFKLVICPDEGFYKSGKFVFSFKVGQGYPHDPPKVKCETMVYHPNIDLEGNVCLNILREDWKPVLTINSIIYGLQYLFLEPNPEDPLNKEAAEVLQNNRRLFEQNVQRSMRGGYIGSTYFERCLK
UniProt Q5TGZ0: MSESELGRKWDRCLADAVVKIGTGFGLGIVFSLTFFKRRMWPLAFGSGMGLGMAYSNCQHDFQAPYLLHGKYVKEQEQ
UniProt P13612, whole entry: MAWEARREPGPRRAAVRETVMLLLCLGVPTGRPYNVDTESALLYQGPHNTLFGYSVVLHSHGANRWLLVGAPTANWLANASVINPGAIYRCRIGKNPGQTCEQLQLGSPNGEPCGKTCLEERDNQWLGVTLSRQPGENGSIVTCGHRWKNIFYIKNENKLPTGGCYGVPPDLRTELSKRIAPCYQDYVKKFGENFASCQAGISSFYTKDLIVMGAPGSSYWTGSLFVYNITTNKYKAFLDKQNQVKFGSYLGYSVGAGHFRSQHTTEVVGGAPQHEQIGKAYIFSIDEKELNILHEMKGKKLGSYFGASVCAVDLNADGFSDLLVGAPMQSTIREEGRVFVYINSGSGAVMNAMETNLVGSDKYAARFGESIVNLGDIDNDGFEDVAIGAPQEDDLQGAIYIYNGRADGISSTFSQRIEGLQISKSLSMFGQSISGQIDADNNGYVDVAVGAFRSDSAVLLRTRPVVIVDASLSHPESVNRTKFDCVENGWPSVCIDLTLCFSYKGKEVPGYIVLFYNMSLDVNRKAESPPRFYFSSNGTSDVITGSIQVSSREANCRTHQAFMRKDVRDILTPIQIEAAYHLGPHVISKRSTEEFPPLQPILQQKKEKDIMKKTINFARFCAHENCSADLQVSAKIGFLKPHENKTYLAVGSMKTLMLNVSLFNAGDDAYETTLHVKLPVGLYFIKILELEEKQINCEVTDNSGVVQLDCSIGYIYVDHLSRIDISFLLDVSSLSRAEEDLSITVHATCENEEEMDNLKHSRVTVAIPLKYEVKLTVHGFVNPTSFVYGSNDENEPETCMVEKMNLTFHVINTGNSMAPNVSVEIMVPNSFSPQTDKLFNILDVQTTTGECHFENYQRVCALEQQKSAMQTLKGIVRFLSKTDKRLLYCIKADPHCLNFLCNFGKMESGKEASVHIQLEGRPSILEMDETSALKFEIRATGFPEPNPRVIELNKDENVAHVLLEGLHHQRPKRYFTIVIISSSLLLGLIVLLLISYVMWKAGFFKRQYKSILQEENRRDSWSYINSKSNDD
UniProt Q9UL33, whole entry: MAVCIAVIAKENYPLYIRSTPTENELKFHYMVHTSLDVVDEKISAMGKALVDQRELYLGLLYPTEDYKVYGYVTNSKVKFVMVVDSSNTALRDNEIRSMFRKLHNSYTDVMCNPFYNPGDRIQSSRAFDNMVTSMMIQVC
UniProt Q9NVN8: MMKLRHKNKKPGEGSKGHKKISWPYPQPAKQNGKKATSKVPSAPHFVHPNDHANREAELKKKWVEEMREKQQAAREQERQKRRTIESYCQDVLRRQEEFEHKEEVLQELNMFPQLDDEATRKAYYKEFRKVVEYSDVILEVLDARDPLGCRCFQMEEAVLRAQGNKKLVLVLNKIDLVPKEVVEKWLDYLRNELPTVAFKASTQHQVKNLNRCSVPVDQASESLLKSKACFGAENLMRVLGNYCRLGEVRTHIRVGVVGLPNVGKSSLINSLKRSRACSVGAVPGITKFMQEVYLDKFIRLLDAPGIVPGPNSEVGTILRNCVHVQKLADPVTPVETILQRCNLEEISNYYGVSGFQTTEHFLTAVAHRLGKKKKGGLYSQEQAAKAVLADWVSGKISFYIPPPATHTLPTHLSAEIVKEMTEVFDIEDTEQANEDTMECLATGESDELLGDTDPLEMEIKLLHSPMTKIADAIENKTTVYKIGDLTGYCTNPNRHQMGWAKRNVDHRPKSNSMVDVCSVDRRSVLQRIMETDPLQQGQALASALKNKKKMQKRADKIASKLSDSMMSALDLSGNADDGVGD
UniProt Q9NVI7: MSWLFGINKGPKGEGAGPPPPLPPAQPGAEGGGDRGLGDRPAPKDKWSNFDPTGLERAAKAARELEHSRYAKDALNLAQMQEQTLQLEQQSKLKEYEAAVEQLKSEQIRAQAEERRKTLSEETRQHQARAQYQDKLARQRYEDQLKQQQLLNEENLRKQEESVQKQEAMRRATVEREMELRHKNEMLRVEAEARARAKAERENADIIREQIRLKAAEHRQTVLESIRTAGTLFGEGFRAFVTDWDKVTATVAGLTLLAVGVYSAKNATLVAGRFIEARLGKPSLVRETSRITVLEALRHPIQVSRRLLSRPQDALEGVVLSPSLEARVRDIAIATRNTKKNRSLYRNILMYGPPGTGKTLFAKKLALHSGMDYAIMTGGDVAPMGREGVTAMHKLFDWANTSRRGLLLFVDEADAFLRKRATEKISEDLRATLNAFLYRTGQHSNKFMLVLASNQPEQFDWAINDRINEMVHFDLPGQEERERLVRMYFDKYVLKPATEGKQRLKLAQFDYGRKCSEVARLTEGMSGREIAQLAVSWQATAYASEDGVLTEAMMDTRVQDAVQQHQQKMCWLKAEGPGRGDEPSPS
UniProt Q86TX2: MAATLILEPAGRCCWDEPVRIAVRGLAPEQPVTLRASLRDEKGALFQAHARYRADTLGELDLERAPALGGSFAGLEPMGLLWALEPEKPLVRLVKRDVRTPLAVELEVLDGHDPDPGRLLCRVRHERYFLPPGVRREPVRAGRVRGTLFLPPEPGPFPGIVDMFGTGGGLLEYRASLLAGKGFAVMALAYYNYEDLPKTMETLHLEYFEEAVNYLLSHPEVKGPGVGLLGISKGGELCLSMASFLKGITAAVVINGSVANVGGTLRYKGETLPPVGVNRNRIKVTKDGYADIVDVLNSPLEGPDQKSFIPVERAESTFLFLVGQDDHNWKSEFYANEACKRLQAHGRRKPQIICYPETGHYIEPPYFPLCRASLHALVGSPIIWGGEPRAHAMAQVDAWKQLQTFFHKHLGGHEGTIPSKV
UniProt Q9H6K1: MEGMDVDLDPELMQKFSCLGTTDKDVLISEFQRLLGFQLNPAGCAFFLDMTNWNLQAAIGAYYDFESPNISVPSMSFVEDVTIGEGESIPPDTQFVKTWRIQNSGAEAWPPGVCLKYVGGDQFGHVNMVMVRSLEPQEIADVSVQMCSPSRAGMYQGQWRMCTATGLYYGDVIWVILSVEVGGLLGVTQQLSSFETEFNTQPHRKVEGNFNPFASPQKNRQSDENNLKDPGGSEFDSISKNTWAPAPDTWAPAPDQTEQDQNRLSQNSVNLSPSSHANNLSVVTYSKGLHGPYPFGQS
UniProt Q9HB20: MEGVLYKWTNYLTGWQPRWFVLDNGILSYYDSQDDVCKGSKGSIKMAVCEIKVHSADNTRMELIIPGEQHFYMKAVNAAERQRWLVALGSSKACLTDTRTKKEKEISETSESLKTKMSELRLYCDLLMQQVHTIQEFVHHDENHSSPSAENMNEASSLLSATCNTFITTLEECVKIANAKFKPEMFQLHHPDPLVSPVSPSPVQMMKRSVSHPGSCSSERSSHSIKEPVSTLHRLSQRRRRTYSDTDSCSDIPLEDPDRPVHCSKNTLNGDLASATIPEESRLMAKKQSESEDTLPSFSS
UniProt Q9NWS6: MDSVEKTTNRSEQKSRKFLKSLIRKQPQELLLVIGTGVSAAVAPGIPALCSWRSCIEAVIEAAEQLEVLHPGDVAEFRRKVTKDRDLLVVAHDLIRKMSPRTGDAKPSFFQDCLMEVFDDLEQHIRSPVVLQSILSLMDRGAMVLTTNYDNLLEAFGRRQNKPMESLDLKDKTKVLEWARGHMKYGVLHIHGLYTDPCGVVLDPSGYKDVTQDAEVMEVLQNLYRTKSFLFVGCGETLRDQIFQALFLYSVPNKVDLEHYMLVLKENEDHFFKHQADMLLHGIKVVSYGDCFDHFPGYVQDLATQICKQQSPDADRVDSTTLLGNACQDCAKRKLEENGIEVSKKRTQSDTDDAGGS
UniProt Q16667, whole entry: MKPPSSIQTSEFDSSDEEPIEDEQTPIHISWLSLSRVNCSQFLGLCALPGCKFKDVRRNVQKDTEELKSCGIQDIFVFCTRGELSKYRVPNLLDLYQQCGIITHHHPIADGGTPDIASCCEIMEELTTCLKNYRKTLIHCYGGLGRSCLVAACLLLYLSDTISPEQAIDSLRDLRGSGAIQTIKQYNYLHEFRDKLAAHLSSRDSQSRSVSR
UniProt Q9UKL0, whole entry: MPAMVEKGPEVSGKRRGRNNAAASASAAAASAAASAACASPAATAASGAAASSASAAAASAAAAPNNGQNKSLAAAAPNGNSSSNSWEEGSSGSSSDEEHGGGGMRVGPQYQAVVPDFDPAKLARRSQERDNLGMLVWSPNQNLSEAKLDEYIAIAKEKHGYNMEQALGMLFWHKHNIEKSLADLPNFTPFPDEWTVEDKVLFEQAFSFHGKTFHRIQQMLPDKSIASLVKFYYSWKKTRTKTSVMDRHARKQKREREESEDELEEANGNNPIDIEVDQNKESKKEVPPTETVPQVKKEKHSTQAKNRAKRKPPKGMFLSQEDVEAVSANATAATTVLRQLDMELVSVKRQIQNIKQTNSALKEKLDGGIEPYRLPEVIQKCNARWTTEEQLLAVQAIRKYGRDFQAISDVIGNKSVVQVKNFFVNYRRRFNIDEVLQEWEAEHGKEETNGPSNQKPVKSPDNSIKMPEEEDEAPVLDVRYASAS

Compound: [O-][N+](C(C1=C(C(O)=C2)NC(C(C=C3)=CC=C3Cl)C4C1C=CC4)=C2Cl)=O
Test: melting temperature shift (compound 7 minus DMSO); higher = compound stabilises the protein
Conditions: 10 µM
Protocol: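 Thermal proteome profiling (TMT mass spectrometry) in intact DAOY medulloblastoma cells or DAOY lysates treated with 10 µM compound 7 or DMSO, heated at 10 temperatures from 40.5 to 73.8 °C for 3 min. Melting curves were fitted with the Bioconductor TPP package, and the melting point difference between compound and vehicle is reported per protein (single curve per condition).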

[1] = system: DAOY cell lysate, treatment time: 20 min, 4 °C
[2] = system: intact DAOY cells, treatment time: 90 min, 37 °C

Row | Target | melting temperature shift [1] [°C] | melting temperature shift [2] [°C]
1 | UniProt Q9Y3M8 | 1.69 | 
2 | APEX1 (UniProt P27695) | 0.321 | 0.363
3 | UniProt Q13950 |  | -1.27
4 | MARK4 (UniProt Q96L34) |  | 0.365
5 | UniProt P59780 | -0.288 | -0.928
6 | LMO7 (UniProt Q8WWI1) | 1.06 | -0.419
7 | P4HA1 (UniProt P13674) | 1.05 | 0.784
8 | RAB2A (UniProt P61019) | 1.22 | -0.595
9 | GLYR1 (UniProt Q49A26) | 0.57 | -0.568
10 | UniProt P54289 | 1.11 | -0.528
11 | TXNDC12 (UniProt O95881) | 0.299 | 0.11
12 | PTAR1 (UniProt Q7Z6K3) | -0.847 | 0.47
13 | GPAA1 (UniProt O43292) | 0.689 | -1.09
14 | UniProt Q9ULM3 | -0.688 | 0.471
15 | MTFR1 (UniProt Q15390) | 1.55 | 
16 | UniProt Q9P0S9 | 2.96 | 
17 | ARHGEF11 (UniProt O15085) | -1.02 | 
18 | UniProt Q9NWB1 |  | -0.701
19 | MAPKAPK3 (UniProt Q16644) | -0.266 | -0.164
20 | MRPS25 (UniProt P82663) | -1.34 | 0.221

Looked up above:
melting temperature shift [1] [°C] with RAB2A (UniProt P61019) reads 1.22
melting temperature shift [2] [°C] with MARK4 (UniProt Q96L34) reads 0.365
melting temperature shift [2] [°C] with PTAR1 (UniProt Q7Z6K3) reads 0.47

Later entries:

Row | Target | melting temperature shift [1] [°C] | melting temperature shift [2] [°C]
21 | NCAPH (UniProt Q15003) | -0.519 | -0.803
22 | UniProt Q9BXN6 |  | 2.37
23 | UniProt Q9NPH2 | -0.157 | 
24 | LNP (UniProt Q9C0E8) | 2.55 | 0.571
25 | UBE2M (UniProt P61081) | -0.448 | -0.314
26 | COPS2 (UniProt P61201) | -0.558 | 0.225
27 | UniProt Q5TGZ0 |  | 1.3
28 | DHDDS (UniProt Q86SQ9) | 3.73 | 
29 | HSF1 (UniProt Q00613) | -0.897 | 
30 | IGF2BP3 (UniProt O00425) | -0.11 | -0.0499
31 | TMA16 (UniProt Q96EY4) | 0.255 | 
32 | UniProt P13612 | -0.0378 | 
33 | TRMT1 (UniProt Q9NXH9) | -0.951 | -0.0856
34 | TRAPPC2L (UniProt Q9UL33) | -0.781 | -0.16
35 | UniProt Q9H930 |  | -0.557
36 | UniProt Q9NUK0 |  | -0.214
37 | TIMM44 (UniProt O43615) | 0.714 | 0.042
38 | TRIP11 (UniProt Q15643) | 0.676 | 0.528
39 | UniProt Q7Z2Y5 | 2.8 | 0.991
40 | UniProt Q9Y689 |  | -2.05

Row | Target | melting temperature shift [1] [°C] | melting temperature shift [2] [°C]
41 | GNL3L (UniProt Q9NVN8) | -0.553 | 
42 | SERPINB8 (UniProt P50452) | -1.25 | 0.473
43 | ATAD3A (UniProt Q9NVI7) | 0.045 | -0.803
44 | UniProt Q86TX2 | -1.43 | 1.74
45 | UniProt O94804 | -0.121 | -0.709
46 | C6ORF106 (UniProt Q9H6K1) |  | 0.436
47 | UniProt Q8N5F7 | 1.16 | 
48 | UniProt P05787 | -1.47 | 2.17
49 | RRAS (UniProt P10301) | 1.48 | -0.454
50 | GTPBP1 (UniProt O00178) | 0.244 | -1.15
51 | UniProt Q9HB20 | -2.28 | 
52 | UBL5 (UniProt Q9BZL1) | 0.72 | -0.066
53 | UniProt Q9NWS6 | 1.48 | 
54 | UniProt Q16667 | -0.893 | 
55 | EIF4E (UniProt P06730) | -0.539 | 0.734
56 | RCOR1 (UniProt Q9UKL0) | -0.424 | -0.196
57 | FKBP4 (UniProt Q02790) | -0.339 | -0.326
58 | MRPS23 (UniProt Q9Y3D9) | -0.191 | -0.43
59 | FOXK2 (UniProt Q01167) | 1.81 | -0.582
